The other results are listed elsewhere or left out. Hit calls seldom repeat between salt and free forms of one compound.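 In K562 cells expressing nanoluciferase-fused kinases, luminescence was recorded at 4 h intervals between 2 and 18 h, normalized as percent of control with DMSO at 100% and a positive control at 0%. A significant (2 sigma) signal drop marks a time point as decreased. The authors' rule for a hit is not shown and takes in more than the number of time points.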
Assays:
Experiment in all cases: kinase-Nluc reporter destabilization hit call (1 = scored as downregulated) (binary); higher = compound decreases kinase abundance
Conditions in all cases: K562; 2-18 h
CDK7 = CDK7 (UniProt P50613)
CDK9 = CDK9 (UniProt P50750)
CHEK2 = CHEK2 (UniProt O96017)
CSF1R = CSF1R (UniProt P07333)
CSK = CSK (UniProt P41240)
CSNK1A1 = CSNK1A1 (UniProt P48729)
CSNK1D = CSNK1D (UniProt P48730)
DDR1 = DDR1 (UniProt Q08345)
DYRK1B = DYRK1B (UniProt Q9Y463)
DYRK2 = DYRK2 (UniProt Q92630)

Sequences of proteins named here, by UniProt entry; tags and fusion partners are left off. A change or cut given only in a name is not applied to a line headed by its entry.
UniProt P50613: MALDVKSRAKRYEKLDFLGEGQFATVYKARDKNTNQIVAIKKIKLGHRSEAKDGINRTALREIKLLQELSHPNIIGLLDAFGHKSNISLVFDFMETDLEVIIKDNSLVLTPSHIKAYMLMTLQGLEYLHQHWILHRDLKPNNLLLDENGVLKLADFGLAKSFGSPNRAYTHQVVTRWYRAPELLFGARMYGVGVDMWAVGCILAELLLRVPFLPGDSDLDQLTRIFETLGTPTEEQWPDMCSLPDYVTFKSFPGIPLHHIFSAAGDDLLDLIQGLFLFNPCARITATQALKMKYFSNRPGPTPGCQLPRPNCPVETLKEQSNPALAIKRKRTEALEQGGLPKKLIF
UniProt P50750, whole entry: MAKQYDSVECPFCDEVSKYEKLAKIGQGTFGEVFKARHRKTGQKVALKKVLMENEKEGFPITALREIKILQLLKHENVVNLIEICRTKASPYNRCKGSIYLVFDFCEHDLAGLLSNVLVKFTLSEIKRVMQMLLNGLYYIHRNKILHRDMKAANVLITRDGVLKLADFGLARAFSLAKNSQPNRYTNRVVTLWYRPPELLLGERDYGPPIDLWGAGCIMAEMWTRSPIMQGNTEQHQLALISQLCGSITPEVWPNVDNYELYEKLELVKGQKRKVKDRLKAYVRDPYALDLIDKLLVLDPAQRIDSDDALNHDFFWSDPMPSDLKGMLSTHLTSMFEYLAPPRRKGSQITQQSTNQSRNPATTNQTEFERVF
UniProt O96017, whole entry: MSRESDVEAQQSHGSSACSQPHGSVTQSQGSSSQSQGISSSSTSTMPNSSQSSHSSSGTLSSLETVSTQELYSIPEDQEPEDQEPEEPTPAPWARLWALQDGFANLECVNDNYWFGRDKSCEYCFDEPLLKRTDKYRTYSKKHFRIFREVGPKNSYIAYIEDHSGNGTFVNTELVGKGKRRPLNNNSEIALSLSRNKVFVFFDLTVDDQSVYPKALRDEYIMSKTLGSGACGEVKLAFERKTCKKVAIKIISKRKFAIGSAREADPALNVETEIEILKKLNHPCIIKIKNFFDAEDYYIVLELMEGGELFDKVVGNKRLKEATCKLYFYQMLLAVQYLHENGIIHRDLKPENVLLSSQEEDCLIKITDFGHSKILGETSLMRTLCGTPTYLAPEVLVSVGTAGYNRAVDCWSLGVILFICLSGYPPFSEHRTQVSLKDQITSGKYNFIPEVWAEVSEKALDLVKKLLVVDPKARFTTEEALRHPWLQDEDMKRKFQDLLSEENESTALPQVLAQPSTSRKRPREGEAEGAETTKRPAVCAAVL
UniProt P07333, whole entry: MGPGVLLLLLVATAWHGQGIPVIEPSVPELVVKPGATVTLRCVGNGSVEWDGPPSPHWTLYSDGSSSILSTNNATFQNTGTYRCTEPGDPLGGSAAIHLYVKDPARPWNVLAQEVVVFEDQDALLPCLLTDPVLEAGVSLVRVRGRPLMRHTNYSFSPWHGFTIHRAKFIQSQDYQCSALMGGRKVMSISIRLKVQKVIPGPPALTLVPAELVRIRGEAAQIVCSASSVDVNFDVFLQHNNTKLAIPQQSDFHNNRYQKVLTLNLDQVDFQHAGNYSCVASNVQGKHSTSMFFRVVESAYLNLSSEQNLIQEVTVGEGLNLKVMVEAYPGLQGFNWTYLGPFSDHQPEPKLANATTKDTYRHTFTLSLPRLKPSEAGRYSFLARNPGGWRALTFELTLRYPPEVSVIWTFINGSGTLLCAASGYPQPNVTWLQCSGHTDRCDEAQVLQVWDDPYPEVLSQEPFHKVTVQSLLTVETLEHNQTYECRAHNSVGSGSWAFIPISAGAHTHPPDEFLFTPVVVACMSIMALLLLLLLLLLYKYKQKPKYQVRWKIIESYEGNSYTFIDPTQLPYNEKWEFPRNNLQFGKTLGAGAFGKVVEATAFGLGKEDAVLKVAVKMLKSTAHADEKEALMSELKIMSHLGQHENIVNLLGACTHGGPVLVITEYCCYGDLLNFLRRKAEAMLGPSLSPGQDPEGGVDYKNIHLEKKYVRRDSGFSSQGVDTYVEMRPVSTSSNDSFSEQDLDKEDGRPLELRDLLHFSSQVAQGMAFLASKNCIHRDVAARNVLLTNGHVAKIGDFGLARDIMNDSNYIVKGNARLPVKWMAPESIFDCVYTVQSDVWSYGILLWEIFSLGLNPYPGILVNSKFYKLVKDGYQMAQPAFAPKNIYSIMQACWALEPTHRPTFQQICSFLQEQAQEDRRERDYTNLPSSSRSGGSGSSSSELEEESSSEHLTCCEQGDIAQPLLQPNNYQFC
UniProt P41240: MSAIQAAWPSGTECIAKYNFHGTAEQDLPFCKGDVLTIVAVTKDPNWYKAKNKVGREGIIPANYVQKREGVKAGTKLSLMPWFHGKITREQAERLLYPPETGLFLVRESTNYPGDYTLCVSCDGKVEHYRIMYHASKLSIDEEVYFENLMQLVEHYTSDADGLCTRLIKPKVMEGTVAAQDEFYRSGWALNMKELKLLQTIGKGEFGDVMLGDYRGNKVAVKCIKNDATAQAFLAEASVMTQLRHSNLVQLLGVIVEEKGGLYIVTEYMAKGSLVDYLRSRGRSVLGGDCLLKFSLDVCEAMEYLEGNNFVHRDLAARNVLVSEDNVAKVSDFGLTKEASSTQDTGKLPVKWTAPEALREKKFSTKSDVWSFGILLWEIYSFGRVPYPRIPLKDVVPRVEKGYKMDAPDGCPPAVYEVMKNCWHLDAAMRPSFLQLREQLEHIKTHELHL
UniProt P48729: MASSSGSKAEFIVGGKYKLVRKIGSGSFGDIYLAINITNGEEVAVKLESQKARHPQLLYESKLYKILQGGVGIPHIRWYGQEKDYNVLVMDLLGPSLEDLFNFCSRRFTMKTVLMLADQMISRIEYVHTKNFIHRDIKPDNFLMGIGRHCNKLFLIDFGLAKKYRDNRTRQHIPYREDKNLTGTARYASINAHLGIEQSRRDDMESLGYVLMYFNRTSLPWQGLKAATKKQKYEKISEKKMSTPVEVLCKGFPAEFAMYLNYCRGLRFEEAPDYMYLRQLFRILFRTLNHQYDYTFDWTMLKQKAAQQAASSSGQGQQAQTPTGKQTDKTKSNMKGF
UniProt P48730: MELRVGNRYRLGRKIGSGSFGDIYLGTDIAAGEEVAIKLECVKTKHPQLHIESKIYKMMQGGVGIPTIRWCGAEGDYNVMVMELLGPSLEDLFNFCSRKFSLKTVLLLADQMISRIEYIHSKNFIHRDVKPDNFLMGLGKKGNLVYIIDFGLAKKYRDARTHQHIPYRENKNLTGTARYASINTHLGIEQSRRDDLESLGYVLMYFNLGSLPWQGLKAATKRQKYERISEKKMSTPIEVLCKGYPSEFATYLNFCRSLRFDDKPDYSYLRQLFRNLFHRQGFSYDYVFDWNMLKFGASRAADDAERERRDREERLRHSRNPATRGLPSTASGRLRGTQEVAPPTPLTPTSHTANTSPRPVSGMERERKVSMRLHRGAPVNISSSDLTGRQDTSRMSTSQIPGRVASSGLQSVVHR
UniProt Q08345: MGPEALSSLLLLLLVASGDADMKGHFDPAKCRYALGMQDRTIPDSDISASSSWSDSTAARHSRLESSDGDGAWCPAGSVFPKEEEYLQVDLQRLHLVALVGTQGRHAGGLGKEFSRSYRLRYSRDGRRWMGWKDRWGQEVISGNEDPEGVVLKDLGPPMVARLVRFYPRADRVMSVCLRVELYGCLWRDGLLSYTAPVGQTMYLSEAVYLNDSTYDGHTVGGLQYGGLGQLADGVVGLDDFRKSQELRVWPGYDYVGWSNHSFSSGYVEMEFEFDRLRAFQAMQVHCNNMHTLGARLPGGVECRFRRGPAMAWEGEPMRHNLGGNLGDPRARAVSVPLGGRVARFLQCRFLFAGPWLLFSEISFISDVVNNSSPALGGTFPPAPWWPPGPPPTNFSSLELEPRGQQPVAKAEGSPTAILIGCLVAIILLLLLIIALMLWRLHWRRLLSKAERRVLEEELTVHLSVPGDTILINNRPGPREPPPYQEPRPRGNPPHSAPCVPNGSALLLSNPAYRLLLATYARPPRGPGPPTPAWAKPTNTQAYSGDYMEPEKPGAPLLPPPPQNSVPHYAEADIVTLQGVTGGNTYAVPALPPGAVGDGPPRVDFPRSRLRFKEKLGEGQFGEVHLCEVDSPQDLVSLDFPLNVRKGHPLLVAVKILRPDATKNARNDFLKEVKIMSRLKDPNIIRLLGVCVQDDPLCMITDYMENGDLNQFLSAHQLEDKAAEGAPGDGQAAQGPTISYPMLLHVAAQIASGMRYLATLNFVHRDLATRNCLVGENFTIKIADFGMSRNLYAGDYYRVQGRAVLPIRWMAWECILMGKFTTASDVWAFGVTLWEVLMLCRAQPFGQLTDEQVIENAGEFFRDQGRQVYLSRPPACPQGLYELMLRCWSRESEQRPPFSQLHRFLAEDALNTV
UniProt Q9Y463, whole entry, looked up: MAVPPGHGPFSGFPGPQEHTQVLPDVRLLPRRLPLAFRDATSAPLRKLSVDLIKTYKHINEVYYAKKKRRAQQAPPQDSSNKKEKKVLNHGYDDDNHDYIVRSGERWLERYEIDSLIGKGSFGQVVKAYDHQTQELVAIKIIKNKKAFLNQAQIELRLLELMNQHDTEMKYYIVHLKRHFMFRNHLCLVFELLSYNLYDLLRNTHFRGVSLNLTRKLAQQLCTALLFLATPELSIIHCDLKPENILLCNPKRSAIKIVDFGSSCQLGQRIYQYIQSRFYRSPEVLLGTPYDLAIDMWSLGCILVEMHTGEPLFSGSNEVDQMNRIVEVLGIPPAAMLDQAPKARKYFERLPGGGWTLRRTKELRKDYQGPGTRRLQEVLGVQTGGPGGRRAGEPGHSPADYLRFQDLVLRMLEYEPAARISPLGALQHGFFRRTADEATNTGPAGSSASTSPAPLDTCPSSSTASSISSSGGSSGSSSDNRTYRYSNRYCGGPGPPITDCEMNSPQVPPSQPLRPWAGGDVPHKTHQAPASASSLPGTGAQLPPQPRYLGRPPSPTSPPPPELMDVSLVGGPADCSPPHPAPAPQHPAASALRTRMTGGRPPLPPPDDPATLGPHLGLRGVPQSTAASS
UniProt Q92630: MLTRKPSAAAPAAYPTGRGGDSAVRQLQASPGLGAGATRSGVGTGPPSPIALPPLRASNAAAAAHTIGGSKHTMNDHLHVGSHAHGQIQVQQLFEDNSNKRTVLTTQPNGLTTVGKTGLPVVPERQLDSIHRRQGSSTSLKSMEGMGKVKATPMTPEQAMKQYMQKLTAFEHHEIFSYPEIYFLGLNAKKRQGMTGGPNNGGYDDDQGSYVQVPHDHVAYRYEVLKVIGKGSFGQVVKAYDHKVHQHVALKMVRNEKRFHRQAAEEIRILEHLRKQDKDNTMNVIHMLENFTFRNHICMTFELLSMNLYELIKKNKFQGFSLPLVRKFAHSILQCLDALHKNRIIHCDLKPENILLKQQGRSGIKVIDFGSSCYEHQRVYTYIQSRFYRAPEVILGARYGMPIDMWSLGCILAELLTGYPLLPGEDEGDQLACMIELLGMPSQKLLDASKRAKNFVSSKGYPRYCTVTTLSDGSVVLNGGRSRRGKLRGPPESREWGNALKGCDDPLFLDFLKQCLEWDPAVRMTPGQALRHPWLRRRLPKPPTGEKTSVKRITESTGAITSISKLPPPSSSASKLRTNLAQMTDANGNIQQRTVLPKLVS

Compound | kinase-Nluc reporter destabilization hit call (CDK7) | kinase-Nluc reporter destabilization hit call (CDK9) | kinase-Nluc reporter destabilization hit call (CHEK2) | kinase-Nluc reporter destabilization hit call (CSF1R) | kinase-Nluc reporter destabilization hit call (CSK) | kinase-Nluc reporter destabilization hit call (CSNK1A1) | kinase-Nluc reporter destabilization hit call (CSNK1D) | kinase-Nluc reporter destabilization hit call (DDR1) | kinase-Nluc reporter destabilization hit call (DYRK1B) | kinase-Nluc reporter destabilization hit call (DYRK2)
CC(C)[C@H](CO)Nc1nc(Nc2cccc(Cl)c2)c2ncn(C(C)C)c2n1 [Purvalanol A] (10 µM) | inactive: 0 | inactive: 0 | inactive: 0 | inactive: 0 | inactive: 0 | inactive: 0 | inactive: 0 | active: 1 | inactive: 0 | inactive: 0
NS(=O)(=O)c1ccc(Nc2nc(-c3cccc(-c4ccccc4)c3)c3[nH]cnc3n2)cc1 (10 µM) | inactive: 0 | inactive: 0 | inactive: 0 | inactive: 0 | inactive: 0 | inactive: 0 | inactive: 0 | inactive: 0 | inactive: 0 | inactive: 0
COc1cc2ncnc(Nc3ccc(O)c(Br)c3)c2cc1OC (10 µM) | inactive: 0 | inactive: 0 | inactive: 0 | inactive: 0 | inactive: 0 | inactive: 0 | inactive: 0 | inactive: 0 | inactive: 0 | inactive: 0
CCNC(=O)C#Cc1ccc2c(C(=Nc3ccc(CN(C)C)cc3)c3ccccc3)c(O)[nH]c2c1 (2.5 µM) | inactive: 0 | inactive: 0 | inactive: 0 | inactive: 0 | inactive: 0 | inactive: 0 | inactive: 0 | inactive: 0 | inactive: 0 | inactive: 0
O=c1cc(N2CCOCC2)oc2c(-c3ccc4c(c3)OCCO4)csc12 (2.5 µM) | inactive: 0 | inactive: 0 | inactive: 0 | inactive: 0 | inactive: 0 | inactive: 0 | inactive: 0 | inactive: 0 | inactive: 0 | inactive: 0
Cc1ccc(C(=O)NC2CC2)cc1-n1ncc(C(=O)c2cccc(C#N)c2)c1N [Acumapimod] (10 µM) | inactive: 0 | inactive: 0 | inactive: 0 | inactive: 0 | inactive: 0 | inactive: 0 | inactive: 0 | inactive: 0 | inactive: 0 | inactive: 0
C=CC(=O)N1CCN(C(=O)CNc2cc(I)c(Cl)cc2O)CC1 [K-Ras(G12C) inhibitor 12] (10 µM) | inactive: 0 | inactive: 0 | inactive: 0 | inactive: 0 | inactive: 0 | inactive: 0 | inactive: 0 | inactive: 0 | inactive: 0 | inactive: 0
CC(C)=CCC/C(C)=C/CC/C(C)=C/C=C/C(C)=C/C(=O)O [Peretinoin] (10 µM) | inactive: 0 | inactive: 0 | inactive: 0 | inactive: 0 | inactive: 0 | inactive: 0 | inactive: 0 | inactive: 0 | inactive: 0 | inactive: 0
COc1c(O)cc2oc(-c3ccc(O)cc3)cc(=O)c2c1O [Hispidulin] (10 µM) | inactive: 0 | inactive: 0 | inactive: 0 | inactive: 0 | inactive: 0 | inactive: 0 | inactive: 0 | inactive: 0 | inactive: 0 | inactive: 0
N#C/C(=C\c1ccc(O)c(O)c1)C(=O)O [Tyrphostin AG30] (10 µM) | inactive: 0 | inactive: 0 | inactive: 0 | inactive: 0 | inactive: 0 | inactive: 0 | inactive: 0 | inactive: 0 | inactive: 0 | inactive: 0
CCN1CCN(Cc2cnc(Nc3cc(-c4cc(F)c5nc(C)n(C(C)C)c5c4)c(F)cn3)nc2)CC1 (10 µM) | inactive: 0 | inactive: 0 | inactive: 0 | inactive: 0 | inactive: 0 | inactive: 0 | inactive: 0 | inactive: 0 | inactive: 0 | inactive: 0
C=C1CCC[C@]2(C)C=C3OC(=O)C(C)=C3C[C@@H]12 [Atractylenolide I] (10 µM) | inactive: 0 | inactive: 0 | inactive: 0 | inactive: 0 | inactive: 0 | inactive: 0 | inactive: 0 | inactive: 0 | inactive: 0 | inactive: 0
COc1ccc(-c2cc(=O)c3c(OC)cc(OC)c(OC)c3o2)cc1 [6-Demethoxytangeretin] (10 µM) | inactive: 0 | inactive: 0 | inactive: 0 | inactive: 0 | inactive: 0 | inactive: 0 | inactive: 0 | inactive: 0 | inactive: 0 | inactive: 0
CC1(N)CCN(c2cccnc2NC(=O)c2nc(-c3ncccc3C(F)(F)F)cnc2N)CC1 [Darovasertib] (10 µM) | inactive: 0 | inactive: 0 | inactive: 0 | inactive: 0 | inactive: 0 | inactive: 0 | inactive: 0 | inactive: 0 | inactive: 0 | inactive: 0
CN1CCC(CNc2ccc3ncc(-c4cccc(OC(F)(F)F)c4)n3n2)CC1 (2.5 µM) | inactive: 0 | inactive: 0 | inactive: 0 | inactive: 0 | inactive: 0 | inactive: 0 | inactive: 0 | inactive: 0 | inactive: 0 | inactive: 0
COc1ccc(Nc2ncc(C(F)(F)F)c(NC3CC3)n2)cc1OC (10 µM) | inactive: 0 | inactive: 0 | inactive: 0 | inactive: 0 | inactive: 0 | inactive: 0 | inactive: 0 | inactive: 0 | inactive: 0 | inactive: 0
COCCOc1ccc2c(c1)ncn2-c1ccc2cccc(N3CCC(N)CC3)c2n1 (10 µM) | inactive: 0 | inactive: 0 | inactive: 0 | inactive: 0 | inactive: 0 | inactive: 0 | inactive: 0 | inactive: 0 | inactive: 0 | inactive: 0
CCN(CC)CCOc1ccc(Nc2nc(-c3ccccc3NC(=O)CCN3CCN(C)CC3)nc3ccccc23)cc1 (2.5 µM) | inactive: 0 | inactive: 0 | inactive: 0 | inactive: 0 | inactive: 0 | inactive: 0 | inactive: 0 | inactive: 0 | inactive: 0 | inactive: 0
O=c1c2c([nH]n1-c1nc3ccccc3s1)CCCC2 (10 µM) | inactive: 0 | inactive: 0 | inactive: 0 | inactive: 0 | inactive: 0 | inactive: 0 | inactive: 0 | inactive: 0 | inactive: 0 | inactive: 0
Cc1c(C)c(NCC(=O)N(C)C2CCN(Cc3ccc(C(N)=O)cc3)CC2)c(C)c(C)c1N (10 µM) | inactive: 0 | inactive: 0 | inactive: 0 | inactive: 0 | inactive: 0 | inactive: 0 | inactive: 0 | inactive: 0 | inactive: 0 | inactive: 0
O=C(c1cccc(Cl)c1F)N1CCN(Cc2cccc(Nc3nccs3)n2)CC1 (2.5 µM) | inactive: 0 | inactive: 0 | inactive: 0 | inactive: 0 | inactive: 0 | inactive: 0 | inactive: 0 | inactive: 0 | inactive: 0 | inactive: 0
O=C1Nc2ccc(I)cc2/C1=C/c1cc(Br)c(O)c(Br)c1 (10 µM) | inactive: 0 | active: 1 | inactive: 0 | inactive: 0 | inactive: 0 | inactive: 0 | inactive: 0 | inactive: 0 | inactive: 0 | inactive: 0
NC1(C(=O)NCCCn2cc(-c3ccc(OC(F)(F)F)cc3)c3cc(CN4CCN(Cc5c(Cl)cccc5Cl)CC4)ccc32)CCNCC1 (2.5 µM) | inactive: 0 | inactive: 0 | inactive: 0 | inactive: 0 | inactive: 0 | inactive: 0 | inactive: 0 | inactive: 0 | inactive: 0 | inactive: 0
O=C(O)[C@H]1O[C@@H](Oc2cc3oc(-c4ccc(O)cc4)cc(=O)c3c(O)c2O)[C@H](O)[C@@H](O)[C@@H]1O [Scutellarin] (10 µM) | inactive: 0 | inactive: 0 | inactive: 0 | inactive: 0 | inactive: 0 | inactive: 0 | inactive: 0 | inactive: 0 | inactive: 0 | inactive: 0
COC(=O)Nc1ccc(-c2nc(N3CCOCC3)c3cnn(C4CCN(C(=O)OC)CC4)c3n2)cc1 (10 µM) | inactive: 0 | inactive: 0 | inactive: 0 | inactive: 0 | inactive: 0 | inactive: 0 | inactive: 0 | inactive: 0 | inactive: 0 | inactive: 0
CCn1c(-c2nonc2N)nc2c(C#CC(C)(C)O)ncc(OC[C@H]3CCCNC3)c21 (10 µM) | inactive: 0 | inactive: 0 | inactive: 0 | inactive: 0 | inactive: 0 | inactive: 0 | inactive: 0 | inactive: 0 | inactive: 0 | inactive: 0
COCCOCCc1c(C)c2cc(OC)c(O)c(C=O)c2oc1=O (10 µM) | inactive: 0 | inactive: 0 | inactive: 0 | inactive: 0 | inactive: 0 | inactive: 0 | inactive: 0 | inactive: 0 | inactive: 0 | inactive: 0
Cn1c(=O)c2c(nc(S(C)(=O)=O)n2C)n(CC#Cc2cccc(O)c2)c1=O (2.5 µM) | inactive: 0 | inactive: 0 | inactive: 0 | inactive: 0 | inactive: 0 | inactive: 0 | inactive: 0 | inactive: 0 | inactive: 0 | inactive: 0
Cc1cnc(NC(=O)c2cc(Oc3cnc(C(=O)N(C)C)nc3)c3cc(C)oc3c2)cn1 (10 µM) | inactive: 0 | inactive: 0 | inactive: 0 | inactive: 0 | inactive: 0 | inactive: 0 | inactive: 0 | inactive: 0 | inactive: 0 | inactive: 0
Cc1cc(C(=O)NC(C)(C)C)cc(C#Cc2ccc3c4c(oc3c2)C(C)(C)c2cc(NS(C)(=O)=O)ccc2C4=O)n1 (10 µM) | inactive: 0 | inactive: 0 | inactive: 0 | inactive: 0 | inactive: 0 | inactive: 0 | inactive: 0 | inactive: 0 | inactive: 0 | inactive: 0

Part of the list above, in markdown:

| Compound | kinase-Nluc reporter destabilization hit call (CDK7) | kinase-Nluc reporter destabilization hit call (CDK9) | kinase-Nluc reporter destabilization hit call (CHEK2) | kinase-Nluc reporter destabilization hit call (CSF1R) | kinase-Nluc reporter destabilization hit call (CSK) | kinase-Nluc reporter destabilization hit call (CSNK1A1) | kinase-Nluc reporter destabilization hit call (CSNK1D) | kinase-Nluc reporter destabilization hit call (DDR1) | kinase-Nluc reporter destabilization hit call (DYRK1B) | kinase-Nluc reporter destabilization hit call (DYRK2) |
| --- | --- | --- | --- | --- | --- | --- | --- | --- | --- | --- |
| NS(=O)(=O)c1ccc(Nc2nc(-c3cccc(-c4ccccc4)c3)c3[nH]cnc3n2)cc1 (10 µM) | inactive: 0 | inactive: 0 | inactive: 0 | inactive: 0 | inactive: 0 | inactive: 0 | inactive: 0 | inactive: 0 | inactive: 0 | inactive: 0 |
| Cc1ccc(C(=O)NC2CC2)cc1-n1ncc(C(=O)c2cccc(C#N)c2)c1N [Acumapimod] (10 µM) | inactive: 0 | inactive: 0 | inactive: 0 | inactive: 0 | inactive: 0 | inactive: 0 | inactive: 0 | inactive: 0 | inactive: 0 | inactive: 0 |
| CCN1CCN(Cc2cnc(Nc3cc(-c4cc(F)c5nc(C)n(C(C)C)c5c4)c(F)cn3)nc2)CC1 (10 µM) | inactive: 0 | inactive: 0 | inactive: 0 | inactive: 0 | inactive: 0 | inactive: 0 | inactive: 0 | inactive: 0 | inactive: 0 | inactive: 0 |
| COc1ccc(-c2cc(=O)c3c(OC)cc(OC)c(OC)c3o2)cc1 [6-Demethoxytangeretin] (10 µM) | inactive: 0 | inactive: 0 | inactive: 0 | inactive: 0 | inactive: 0 | inactive: 0 | inactive: 0 | inactive: 0 | inactive: 0 | inactive: 0 |
| O=c1c2c([nH]n1-c1nc3ccccc3s1)CCCC2 (10 µM) | inactive: 0 | inactive: 0 | inactive: 0 | inactive: 0 | inactive: 0 | inactive: 0 | inactive: 0 | inactive: 0 | inactive: 0 | inactive: 0 |
| O=C1Nc2ccc(I)cc2/C1=C/c1cc(Br)c(O)c(Br)c1 (10 µM) | inactive: 0 | active: 1 | inactive: 0 | inactive: 0 | inactive: 0 | inactive: 0 | inactive: 0 | inactive: 0 | inactive: 0 | inactive: 0 |
| O=C(O)[C@H]1O[C@@H](Oc2cc3oc(-c4ccc(O)cc4)cc(=O)c3c(O)c2O)[C@H](O)[C@@H](O)[C@@H]1O [Scutellarin] (10 µM) | inactive: 0 | inactive: 0 | inactive: 0 | inactive: 0 | inactive: 0 | inactive: 0 | inactive: 0 | inactive: 0 | inactive: 0 | inactive: 0 |
| Cn1c(=O)c2c(nc(S(C)(=O)=O)n2C)n(CC#Cc2cccc(O)c2)c1=O (2.5 µM) | inactive: 0 | inactive: 0 | inactive: 0 | inactive: 0 | inactive: 0 | inactive: 0 | inactive: 0 | inactive: 0 | inactive: 0 | inactive: 0 |
| Cc1cnc(NC(=O)c2cc(Oc3cnc(C(=O)N(C)C)nc3)c3cc(C)oc3c2)cn1 (10 µM) | inactive: 0 | inactive: 0 | inactive: 0 | inactive: 0 | inactive: 0 | inactive: 0 | inactive: 0 | inactive: 0 | inactive: 0 | inactive: 0 |
